These results are taken from the supplement of paper PMC3334620.

Whole data set: some 33,000 sequences, median “E-score (-0.5 to 0.5)” near -0.016, cut for the highest 2% near 0.3. Some of the results follow.

The target in this experiment is T1, Yer184c (UniProt P39961).
T1 sequence: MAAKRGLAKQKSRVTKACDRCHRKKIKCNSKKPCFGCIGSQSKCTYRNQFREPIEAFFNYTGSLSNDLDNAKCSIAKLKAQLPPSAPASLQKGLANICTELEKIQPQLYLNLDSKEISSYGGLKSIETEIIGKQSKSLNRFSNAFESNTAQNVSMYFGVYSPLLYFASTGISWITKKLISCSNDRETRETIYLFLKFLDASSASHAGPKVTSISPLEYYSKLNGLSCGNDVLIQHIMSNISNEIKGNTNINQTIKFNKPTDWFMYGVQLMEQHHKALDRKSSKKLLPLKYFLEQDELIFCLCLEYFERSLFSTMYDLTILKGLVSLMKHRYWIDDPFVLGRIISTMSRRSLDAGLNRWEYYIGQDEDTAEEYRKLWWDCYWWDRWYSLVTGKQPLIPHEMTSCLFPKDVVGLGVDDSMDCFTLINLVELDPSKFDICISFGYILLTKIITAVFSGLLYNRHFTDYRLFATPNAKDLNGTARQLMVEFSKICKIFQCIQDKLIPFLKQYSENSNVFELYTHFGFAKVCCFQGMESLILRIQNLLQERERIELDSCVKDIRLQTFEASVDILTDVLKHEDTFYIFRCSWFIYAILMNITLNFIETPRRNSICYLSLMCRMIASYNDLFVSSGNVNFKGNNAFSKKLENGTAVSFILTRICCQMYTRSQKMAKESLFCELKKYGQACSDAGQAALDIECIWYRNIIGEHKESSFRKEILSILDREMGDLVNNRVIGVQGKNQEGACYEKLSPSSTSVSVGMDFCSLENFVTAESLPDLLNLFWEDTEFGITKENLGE
The experiment in a line: PBM E-score (8-mer binding enrichment) (E-score (-0.5 to 0.5)); higher = stronger / more preferred TF binding. As to conditions: protein concentration: 100 nM; construct: GST-full length. The method in brief:
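Masliner-normalised scans of fluorescent anti-GST signal were the basis for scoring. That signal came from GST-tagged yeast transcription factors applied at about 100-200 nM to double-stranded universal all-10-mer Agilent arrays on fresh or once-stripped slides. Each ungapped eight-base word, pooled with its reverse complement, received an E-score from the Universal PBM Analysis Suite.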
As for TAGATCTA, the “PBM E-score” value turned out to be 0.0733.

For the sequence ATATCAAA, the “PBM E-score” value is 0.253.

For the sequence CGCAAGCG, the “PBM E-score” value was -0.113.

With GGTCGGAC, the “PBM E-score” value was determined as 0.0075.

AATGCAGT: the “PBM E-score” value is -0.055.

For the sequence CCATGTGC, the “PBM E-score” value was determined as 0.0242.

In the case of AGCCAGGG, the “PBM E-score” value was -0.253.

For ACTGGATG, the “PBM E-score” value was -0.0807.

AGCCTCTC: the “PBM E-score” value is -0.245.

Take CCACACCG: the “PBM E-score” value was -0.0036.

As for CCTGCGAC, the “PBM E-score” value was -0.226.

For the sequence CAGCAGCG, the “PBM E-score” value amounted to 0.0726.

Take AGATGTTG: the “PBM E-score” value was -0.0848.

As for ATGAGGGA, the “PBM E-score” value is -0.345.

Turning to AGTTTAAA, the “PBM E-score” value is 0.288.

Take AGGTCGGG: the “PBM E-score” value is -0.168.

With GCAGAAGC, the “PBM E-score” value was -0.0141.

GACGCTCA: the “PBM E-score” value is -0.128.

Turning to ACAGTTAT, the “PBM E-score” value is -0.0291.

As for AGCTAGCA, the “PBM E-score” value is 0.0286.

Take GACCCCAA: the “PBM E-score” value was -0.24.

For the sequence CAGCGCAA, the “PBM E-score” value is -0.162.

AAGACATG: the “PBM E-score” value is -0.262.

On to GGCCCAAA, for which the “PBM E-score” value is 0.11.

Regarding ACTGGACC, the “PBM E-score” value is -0.0788.

With GAATGTGC, the “PBM E-score” value is -0.0995.

For the sequence ATCATGAA, the “PBM E-score” value is 0.0581.

In the case of CGTAAGCA, the “PBM E-score” value is -0.252.

Turning to CAGTCCAG, the “PBM E-score” value is -0.223.

With AGATAAAC, the “PBM E-score” value is 0.266.

Regarding CGGGCCAG, the “PBM E-score” value is -0.0224.

With CTTGGGGC, the “PBM E-score” value is -0.207.

Regarding AAGCGTAT, the “PBM E-score” value is -0.222.

In the case of AATTAACT, the “PBM E-score” value is 0.0498.

AAGCGCTA: the “PBM E-score” value was 0.0496.

For CAGCCTAC, the “PBM E-score” value was -0.00813.

Turning to CGCGGGCA, the “PBM E-score” value was 0.204.

In the case of CCTCGCCG, the “PBM E-score” value was -0.124.

On to CTCTACGC, for which the “PBM E-score” value was -0.0175.

For the sequence ACGGGCGC, the “PBM E-score” value was determined as 0.0508.

CGCATTAG: the “PBM E-score” value was -0.101.

Consider CTTACGAC, for which the “PBM E-score” value was -0.104.

Regarding AAAGTCAG, the “PBM E-score” value was -0.09.

CGTGCGAG: the “PBM E-score” value turned out to be 0.0827.

For the sequence AAAACAAG, the “PBM E-score” value came to 0.0135.

On to AGCACGTA, for which the “PBM E-score” value was -0.211.

Take GCCCCTAA: the “PBM E-score” value was -0.26.

On to CAGTGTGG, for which the “PBM E-score” value was -0.35.

Turning to CAAACTGC, the “PBM E-score” value was -0.0352.

With ACGCGTAC, the “PBM E-score” value is -0.0315.

For GATACGCC, the “PBM E-score” value came to 0.0847.

Take ACAATGTA: the “PBM E-score” value is -0.00057.

For the sequence TCACATAA, the “PBM E-score” value was found to be 0.0654.

As to ATCGTTAC, the “PBM E-score” value was -0.0776.

As for GCCCGAGC, the “PBM E-score” value was 0.142.

Consider ATAGGTTG, for which the “PBM E-score” value was -0.156.

For the sequence ACCACGCT, the “PBM E-score” value is -0.0936.

As to GAGAGTAA, the “PBM E-score” value was 0.194.

In the case of CCCCCATA, the “PBM E-score” value is -0.351.

On to GCCCGTTA, for which the “PBM E-score” value was -0.132.

For ATATGCTG, the “PBM E-score” value was -0.21.

Regarding CAAGATGC, the “PBM E-score” value worked out at 0.171.

Consider GCAATACA, for which the “PBM E-score” value came out at 0.115.

Regarding CAAGTATC, the “PBM E-score” value is -0.053.

As to CATCAGGC, the “PBM E-score” value was -0.206.

GCTTCGTA: the “PBM E-score” value was -0.148.

Take ACATCGCA: the “PBM E-score” value was -0.156.

ATAAAATC: the “PBM E-score” value came out at 0.152.

For the sequence ACGAGGTG, the “PBM E-score” value is -0.0563.

In the case of AGTCACTA, the “PBM E-score” value is -0.0653.

For the sequence AACTTGAA, the “PBM E-score” value is 0.199.

Regarding CTTTCTGA, the “PBM E-score” value stood at 0.124.

Turning to AAATCACC, the “PBM E-score” value is 0.128.

As to GCACAGGA, the “PBM E-score” value was 0.0901.

Consider GTCAAAGA, for which the “PBM E-score” value was 0.0783.

For AATCCGCT, the “PBM E-score” value is -0.0489.

Consider CCCTGCGA, for which the “PBM E-score” value was -0.156.

As to CGTCGCAA, the “PBM E-score” value was determined as 0.00524.

For the sequence CGTCGGCA, the “PBM E-score” value was 0.221.

On to CGGCGTGA, for which the “PBM E-score” value worked out at 0.16.

As to CCTACCAA, the “PBM E-score” value was 0.0704.

On to AGGGTGCA, for which the “PBM E-score” value was -0.234.

Consider CTCGGTTC, for which the “PBM E-score” value turned out to be 0.131.

Turning to AAGTATTC, the “PBM E-score” value amounted to 0.0574.

For AGAGTGCT, the “PBM E-score” value was -0.265.

As for CAGCTCAA, the “PBM E-score” value is 0.0261.

Regarding ATTTGGCC, the “PBM E-score” value was determined as 0.0904.

For AACGCCTT, the “PBM E-score” value is -0.105.

Turning to ATCATAAT, the “PBM E-score” value stood at 0.0657.

In the case of CGGCGTTA, the “PBM E-score” value amounted to 0.243.

With GGATATAC, the “PBM E-score” value came to 0.148.

For the sequence TACGTAGA, the “PBM E-score” value is -0.057.

On to ACAGCTCA, for which the “PBM E-score” value is -0.225.

For CATTCCGC, the “PBM E-score” value is -0.0761.
